For four substances, binding results are on record in publication PMC10646254.

The chains behind the UniProt entries cited, without tags or fusion partners.
UniProt Q02447: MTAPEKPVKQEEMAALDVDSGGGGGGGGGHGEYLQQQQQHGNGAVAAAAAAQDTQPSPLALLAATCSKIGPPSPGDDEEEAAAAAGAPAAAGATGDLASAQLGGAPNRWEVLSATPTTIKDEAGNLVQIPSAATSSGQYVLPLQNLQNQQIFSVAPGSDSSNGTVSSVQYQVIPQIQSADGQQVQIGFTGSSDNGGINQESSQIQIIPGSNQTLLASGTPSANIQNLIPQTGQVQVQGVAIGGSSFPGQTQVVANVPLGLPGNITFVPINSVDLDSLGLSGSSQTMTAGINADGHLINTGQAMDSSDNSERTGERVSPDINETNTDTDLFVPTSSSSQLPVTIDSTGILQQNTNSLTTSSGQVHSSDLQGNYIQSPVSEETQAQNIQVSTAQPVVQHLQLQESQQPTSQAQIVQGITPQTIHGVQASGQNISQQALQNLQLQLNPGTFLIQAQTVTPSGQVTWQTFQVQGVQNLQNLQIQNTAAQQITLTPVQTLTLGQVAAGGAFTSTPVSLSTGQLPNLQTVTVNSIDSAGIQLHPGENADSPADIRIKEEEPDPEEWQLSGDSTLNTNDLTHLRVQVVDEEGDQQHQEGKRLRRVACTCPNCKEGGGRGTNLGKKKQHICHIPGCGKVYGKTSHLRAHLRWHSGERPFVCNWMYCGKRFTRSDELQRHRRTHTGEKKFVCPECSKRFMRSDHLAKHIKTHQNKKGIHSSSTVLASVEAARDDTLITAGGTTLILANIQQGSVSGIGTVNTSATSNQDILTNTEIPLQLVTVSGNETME
UniProt P08047: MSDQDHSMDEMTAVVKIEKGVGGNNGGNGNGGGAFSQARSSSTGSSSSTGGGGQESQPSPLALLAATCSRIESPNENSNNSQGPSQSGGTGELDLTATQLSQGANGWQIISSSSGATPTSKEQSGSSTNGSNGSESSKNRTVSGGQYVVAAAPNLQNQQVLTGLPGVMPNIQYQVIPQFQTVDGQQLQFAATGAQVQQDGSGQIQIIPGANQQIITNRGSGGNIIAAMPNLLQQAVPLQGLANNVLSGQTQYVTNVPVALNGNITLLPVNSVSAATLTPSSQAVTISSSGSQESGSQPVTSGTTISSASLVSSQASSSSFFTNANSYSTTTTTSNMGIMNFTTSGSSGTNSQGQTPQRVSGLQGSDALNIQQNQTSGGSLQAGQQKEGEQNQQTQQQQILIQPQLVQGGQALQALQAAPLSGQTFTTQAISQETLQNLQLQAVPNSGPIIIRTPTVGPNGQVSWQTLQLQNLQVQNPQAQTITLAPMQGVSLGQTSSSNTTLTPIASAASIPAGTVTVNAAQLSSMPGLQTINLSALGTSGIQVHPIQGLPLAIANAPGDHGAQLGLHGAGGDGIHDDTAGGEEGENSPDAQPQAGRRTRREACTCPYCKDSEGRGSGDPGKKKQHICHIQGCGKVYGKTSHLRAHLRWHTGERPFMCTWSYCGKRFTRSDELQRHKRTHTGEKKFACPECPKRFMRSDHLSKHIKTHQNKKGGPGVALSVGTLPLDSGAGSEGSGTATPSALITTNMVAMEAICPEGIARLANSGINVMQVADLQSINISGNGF

The target of assay [1] is T1, endogenous ELK4 (human (endogenous in HCT116, SW480, RKO)) (UniProt P28324).
T1 sequence: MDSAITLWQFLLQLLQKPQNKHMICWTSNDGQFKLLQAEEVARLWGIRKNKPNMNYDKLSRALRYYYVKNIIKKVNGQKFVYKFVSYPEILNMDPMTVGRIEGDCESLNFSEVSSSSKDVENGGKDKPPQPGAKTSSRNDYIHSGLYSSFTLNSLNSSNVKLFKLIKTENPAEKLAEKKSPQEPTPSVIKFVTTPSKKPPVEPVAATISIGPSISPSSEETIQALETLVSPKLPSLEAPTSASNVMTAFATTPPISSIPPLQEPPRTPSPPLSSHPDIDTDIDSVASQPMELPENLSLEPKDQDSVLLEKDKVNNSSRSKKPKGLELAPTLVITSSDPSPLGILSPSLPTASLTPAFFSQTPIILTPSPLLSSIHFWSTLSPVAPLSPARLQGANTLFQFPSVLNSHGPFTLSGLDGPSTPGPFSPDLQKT
The assay is described as follows: proximity ligation; Duolink in situ PLA on fixed, permeabilised HCT116, SW480 and RKO cells with antibodies against ELK4 and SP1 or SP3.

The target of assay [2] is T2, FLAG-tagged ELK4 (wild type) (human) (UniProt P28324).
T2 sequence: T1 sequence
The assay is described as follows: co-IP; serum-stimulated cells; in vitro dephosphorylation by λ-protein phosphatase (λ-PPase).

Assay [3] addresses T2, FLAG-tagged ELK4 (wild type) (human). As to the kind of experiment: co-IP; HCT116 cells transfected for 24 h; lysis in 20 mM Tris-HCl pH 8.0, 150 mM NaCl, 1% NP40; agarose beads 3 h at 4 °C; cells with or without serum stimulation (indicated concentrations, 10% for 15 min), U0126 (10 µM), selumetinib or ulixertinib.
Assay [4] deals with T3, ELK4 T361/T366/S381/S387E mutant (human) (UniProt P28324).
T3 sequence: T1 sequence with T361E, T366E, S381E, S387E
Described as above.

Assay [5] addresses T4, P329A mutant ELK4 (human) (UniProt P28324).
T4 sequence: T1 sequence with P329A
The assay is described as above.

For assay [6], the target named is T2, FLAG-tagged ELK4 (wild type) (human). As to the kind of experiment: co-IP; ELK4 with full-length SP1 or SP3 and their serial truncations (domain deletions); cell line not stated.

Substitutions are numbered along the chain they refer to. These are yes or no findings as the source states them, for the method shown. In cells and extracts the contact can be indirect. Some binding calls cover weakened binding; strength is not graded here. For part of these data: Sequences can lack the tags named with a protein.

Take “endogenous SP3 (from UniProt Q02447 1-781)”: the binding entry was “binds” in assay [1]; “binds weakly” in assay [2]; “binds” in assay [3]; “binds” in assay [4]; “binds” in assay [5].

On to “SP1, full length, in the pcDNA-HA expression vector (from UniProt P08047 1-785)”, for which the binding entry in assay [6] is recorded as “binds”.

As for “endogenous SP1 (from UniProt P08047 1-785)”, the binding entry in assay [1] is reported as “binds”; in assay [2], “binds weakly”; in assay [3] it was “binds”; in assay [4] it was “binds”; in assay [5], “binds”.

Consider “SP3, full length, in the pcDNA-HA expression vector (from UniProt Q02447 1-781)”, for which the binding entry in assay [6] is on record as “binds”.
